Test results published in PubChem BioAssay AID595 (National Center for Advancing Translational Sciences (NCATS), 2007).
Out of some 71,000 compounds screened, about 310 (0.44%) were called active. This list was built around the results that the source calls inconclusive (neither active nor inactive); the mix of calls is not that of the screen. Calls come from the whole dose curve; as a rule, active = well fitted curve in either direction with a large enough effect; inconclusive = small, poorly fitted or top-dose-only effect, or another doubt; inactive = flat fitted curve, though single readings scatter. Potencies of inconclusive entries are doubtful fits and often do not repeat.

test system: Hsp90 C-terminal peptide / TPR2A (Hop) interaction, human; assay: qHTS Assay for Disrupters of an Hsp90 Co-Chaperone Interaction; settings: AlphaScreen TPR2A-His6 binding biotin-Hsp90 C-terminal peptide; activity change, negative = inhibition: at 57 µM (top of the series) unless noted
% is set by controls: 0 for no effect and ±100 for the full control effect; potency is the fitted concentration of half-maximal effect.

| Compound | activity change, negative = inhibition | Potency |
| --- | --- | --- |
| COc1ccc(-c2nnc(N)s2)cc1 | inactive |  |
| COc1ccc2[nH]cc(CCNc3nc(-c4ccc(N(C)C)cc4)nc4ccccc34)c2c1 |  | inconclusive: 25.1 µM [inhibitor, single point] |
| Cc1ccc(NC(=O)c2ccccc2)s1 | inactive |  |
| COc1ccc(C(=O)c2oc3ccccc3c2N)cc1 | inactive |  |
| CSCCC(NC(=O)c1cncc(Br)c1)C(=O)O (configuration not stated) | inconclusive: 34.3% |  |
| N#C/C(=C\c1ccc(O)c(O)c1)C(=O)NCCCNC(=O)/C(C#N)=C/c1ccc(O)c(O)c1 |  | active: 2 µM |
| Cc1ccccc1NS(=O)(=O)c1ccc(C2CNC(=O)C2)cc1 (configuration not stated) | inconclusive: 44% |  |
| Cc1ccc(N2CCN(S(=O)(=O)c3ccc(F)c(C)c3)CC2)c(C)c1 |  | inconclusive: 31.6 µM [activator, single point] |
| CCOC(=O)Cn1c(C)nc2c(C(=O)OCC)sc(C)c2c1=O | inactive |  |
| Brc1c(NC2=NCCN2)ccc2nccnc12 |  | inconclusive: 31.6 µM [inhibitor, partial curve] |
| COc1ccc(NC(=O)c2cc(-c3ccc(C)o3)nc3ccccc23)cc1OC | inactive |  |
| Cc1cccc(-n2ncc3c(NC4CCCCC4)ncnc32)c1 | inconclusive: 52.8% |  |
| CCOC(=O)Nc1ccc2c(c1)Nc1ccccc1S2 |  | inconclusive: 31.6 µM [inhibitor, single point] |
| Cn1c(=O)c2c(nc(NCCCO)n2Cc2cccc(Br)c2)n(C)c1=O | inconclusive: 25.4% |  |
| CNc1ncnc2c1ncn2[C@H]1C[C@H](OP(=O)(O)O)[C@H](COP(=O)(O)O)O1 | inactive |  |
| Cc1cccc(N(CC(=O)NC2CCCCC2)C(=O)c2c(C)noc2C)c1 | inactive |  |
| CCOc1ccc(Nc2cc(C)nc(N3CCOCC3)n2)cc1 | inconclusive: 38.2% |  |
| O=C(NC1CCCCC1)C(c1ccccc1)N(Cc1ccco1)C(=O)Cn1cnc2ccccc21 (configuration not stated) | inactive |  |
| Cn1cc(-c2nc3cnc(Oc4cccc(Cl)c4)nc3n(C3CC3)c2=O)c2ccccc21 | inconclusive: 145% |  |
| CC(C)NC[C@H](O)c1ccc(O)c(O)c1 | inconclusive: 54.8% |  |
| Cc1ccc(C)c(NC(=O)c2nnn(Cc3ccccc3)c2N)c1 | inconclusive: 39.2% |  |
| COc1ccc2c(-c3ccccc3)cc(N3CCOCC3)nc2c1 |  | inconclusive: 25.1 µM [activator, single point] |
| CCOC(=O)c1cc(C#N)c(N)nc1C | inactive |  |
| Cc1nc(-c2ccc(NC(=O)c3cccs3)cc2)cs1 | inconclusive: 39.6% |  |
| COc1cc(-c2nnc3sc(-c4ccccn4)nn23)cc(OC)c1OC |  | inconclusive: 20 µM [inhibitor, single point] |
| CCC(C)(C)C(=O)O[C@@H]1C[C@@H](C)C=C2C=C[C@H](C)[C@H](CC[C@@H]3C[C@@H](O)CC(=O)O3)[C@H]21 | inactive |  |

Some values from the list.
In activity change, negative = inhibition, CSCCC(NC(=O)c1cncc(Br)c1)C(=O)O (configuration not stated) has the entry inconclusive: 34.3%
In activity change, negative = inhibition, COc1ccc(NC(=O)c2cc(-c3ccc(C)o3)nc3ccccc23)cc1OC has the entry inactive
In activity change, negative = inhibition, Cc1cccc(N(CC(=O)NC2CCCCC2)C(=O)c2c(C)noc2C)c1 has the entry inactive
In Potency, Brc1c(NC2=NCCN2)ccc2nccnc12 has the entry inconclusive: 31.6 µM [inhibitor, partial curve]

Remaining list, next part:

| Compound | activity change, negative = inhibition | Potency |
| --- | --- | --- |
| c1cc(NC2CC2)nc(-c2ccoc2)n1 |  | inconclusive: 25.1 µM [inhibitor, partial curve] |
| CCCCOc1ccc(S(=O)(=O)n2c(C)nc3ccccc32)cc1 |  | inconclusive: 5.01 µM [activator, single point] |
| O=c1c(CCc2ccccc2)nc2cncnc2n1-c1ccccc1 | inactive |  |
| NC(=O)CCn1c(=O)oc2ccccc21 | inconclusive: 48.2% |  |
| O=c1[nH]c2c(cc1CNCCN1CCOCC1)c(-c1cccc(F)c1)nn2-c1ccccc1 | inconclusive: 32.3% |  |
| O=S(=O)(O)c1ccc2c(N=Nc3c(O)ccc4ccccc34)cccc2c1 |  | inconclusive: 3.16 µM [inhibitor, partial curve] |
| COc1ccc(N2CCC(CNC(=O)Nc3ccc(OC)cc3OC)C2)cc1 (configuration not stated) |  | inconclusive: 25.1 µM [inhibitor, partial curve] |
| COC(=O)c1sc2ccccc2c1NC(=O)c1cccs1 |  | inconclusive: 25.1 µM [activator, single point] |
| COc1ccc(S(=O)(=O)NC(C(C)C)C(C)C)cc1OC | inconclusive: 36.9% |  |
| Cc1ccc(-c2nnc3c4ccccc4c(C)nn23)cc1S(=O)(=O)N1CCN(CCO)CC1 | inactive |  |
| CCN(CC)c1ccc(N)cc1 |  | inconclusive: 12.6 µM [inhibitor, partial curve] |
| COc1ccccc1N1CCN(Cc2nc(N)nc(Nc3ccc(C)c(Cl)c3)n2)CC1 |  | inconclusive: 39.8 µM [inhibitor, single point] |
| CC(=O)c1cc2c(cc1NC(=O)c1cc3nc(C(C)C)cc(C(F)(F)F)n3n1)OCO2 | inconclusive: 60.3% |  |
| CCOC(=O)c1c(C)[nH]c(C(=O)COC(=O)CCC(=O)c2ccc3c(c2)OCCO3)c1C | inactive |  |
| COc1ccc2[nH]cc(CCNc3ncncc3-c3ccccc3C)c2c1 | inactive |  |
| COc1ccc(-c2nc3cnc(N4CCNCC4)nc3n(Cc3cccc(OC)c3)c2=O)cc1 |  | inconclusive: 25.1 µM [activator, single point] |
| O=C(CSc1nc(-c2ccco2)cc(C(F)(F)F)n1)NCCCn1ccnc1 |  | inconclusive: 39.8 µM [inhibitor, single point] |
| COc1ccccc1-c1cc(C(=O)Nc2cc(C)on2)no1 | inconclusive: 43.8% |  |
| Nc1cc(N)cc(-c2nc3ccccc3[nH]2)c1 |  | inconclusive: 20 µM [inhibitor, partial curve] |
| Cc1ccccc1CSc1nncn1N | inconclusive: 53.2% |  |
| CS(=O)(=O)Nc1ccc(Nc2c3ccccc3nc3ccccc23)cc1 | inactive: -2.56% [at 11 µM] |  |
| N#CC1=C(N)SC(N)=C(C#N)C1c1ccc(C(F)(F)F)cc1 | inactive |  |
| O=C(Cn1c(NCCCO)nc2ccccc21)c1ccco1 | inconclusive: 52% |  |
| CCOC(=O)C1=C(c2ccccc2)NC(SCC(=O)Nc2cccc(C)c2)=C(C#N)C1c1ccco1 (configuration not stated) | inconclusive: 58.9% |  |
| COc1ccccc1-c1nc(C#N)c(N2CCN(c3ccccc3)CC2)o1 |  | inconclusive: 31.6 µM [inhibitor, single point] |
| Cn1c(=O)c2c(nc(NCCNc3nc4c(c(=O)n(C)c(=O)n4C)n3C)n2C)n(C)c1=O | inconclusive: 92.2% [at 11 µM] |  |
